Experimental data: patent US6902881B2, “Compounds and methods for regulating cell differentiation” (priority 2000, dated 2005)

Assay: Distribution of biliverdine in isopycnic sucrose gradient fractions of oocyte homogenate
Parameters: species or system Xenopus laevis

Measured: Biliverdine in sucrose gradient fraction

C=CC1=C(C)/C(=C/C2=NC(=C\c3[nH]c(/C=C4\NC(=O)C(C)=C4C=C)c(C)c3CCC(=O)O)/C(CCC(=O)O)=C2C)NC1=O [Biliverdin, biliverdin IXα]
Not Present: fraction 1, LIPIDS | fraction 2, CYTOSOL | fraction 3, CYTOSOL | fraction 4, ENDOCYTOSED VESICLES | fraction 5, MULTI VESICULAR BODIES AND MITOCHONDRIA
